Measured values published in article doi:10.1101/2022.02.15.480428.
Results are given in words; binding and its absence hold for the method and conditions named. Binding seen in cells or lysates may run through a third protein. A yes stands for co-enrichment or nearness to the bait. Other partners may have been found. No binding means not detected with the bait. Sequences can lack the tags named with a protein.

Target: T1, APE-1 endogenously tagged with 3xFLAG:GFP (C. elegans) (UniProt Q9XVN3)
T1 sequence: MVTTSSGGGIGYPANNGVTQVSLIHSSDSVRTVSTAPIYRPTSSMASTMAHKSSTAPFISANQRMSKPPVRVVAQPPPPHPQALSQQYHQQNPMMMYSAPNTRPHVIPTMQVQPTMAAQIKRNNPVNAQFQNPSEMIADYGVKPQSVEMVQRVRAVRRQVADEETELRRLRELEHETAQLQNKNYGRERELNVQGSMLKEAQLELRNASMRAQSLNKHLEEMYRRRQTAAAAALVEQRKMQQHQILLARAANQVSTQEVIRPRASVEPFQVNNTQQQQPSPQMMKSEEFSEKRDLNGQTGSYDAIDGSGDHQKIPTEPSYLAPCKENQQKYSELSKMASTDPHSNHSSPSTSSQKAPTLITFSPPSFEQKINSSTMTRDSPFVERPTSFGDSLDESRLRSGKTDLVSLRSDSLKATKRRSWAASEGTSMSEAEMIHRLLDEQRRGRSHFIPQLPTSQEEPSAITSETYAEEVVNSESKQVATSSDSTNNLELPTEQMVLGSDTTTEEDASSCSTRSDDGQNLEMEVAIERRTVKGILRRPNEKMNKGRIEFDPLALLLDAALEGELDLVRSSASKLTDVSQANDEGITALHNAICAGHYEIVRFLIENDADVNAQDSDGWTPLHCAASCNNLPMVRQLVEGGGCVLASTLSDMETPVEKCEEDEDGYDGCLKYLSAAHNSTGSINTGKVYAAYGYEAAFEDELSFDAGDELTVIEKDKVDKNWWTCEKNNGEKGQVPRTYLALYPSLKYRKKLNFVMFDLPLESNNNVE
Assay: affinity purification with mass spectrometry

B1: PAR-3 (protein, UniProt Q17353 1-1379)
chain: MSASSTSSSSTSCPEGGEPSGSCKSSDEGESTLKKRMQQYGIASGYANSSISTLDRSQYQSLPLNGTRRVTVQFGRMKIVVPWKESDQTVGQLADAALLRYKKARGMANEDRIHVHRLECASDGGILDMDDVLEEVFDLNYDQILAITDEANGGSTTPTYSQIQKQQHHYAQPLPYARKFDGGPSTPIASAFGSVTVNHQAHRAASPYNVGFARSNSRDFAPQPTHSKERRDSVVEVSSFDQIPQSGLRVSTPKPSRQSEDVIDGKPMNQPILRSSLRTEASGSRTEEATPVKQSRVTLSPEVEKKLAEQDERKSERRKHYDKNPGRFARGSDRKSRITDALLDARDRIADQLESQNPAEETKSQMIRVKIDQGPMPGTSLVTFPPIPEKSENEKQLGIEVNAVFDESSELPGTSEPTKLSSVQIMKIEDGGRIAKDGRIRVGDCIVAIDGKPVDQMSIIRVRASISDLAAVTSRPVTLIINRSLESFLEQESSAKPIQSALQQANTQYIGHTTVVELIKSSNGFGFTVTGRETAKGERLFYIGTVKPYGVALGHLKSGDRLLEINGTPTGQWTQSEIVEKLKETMVGEKIKFLVSRVSQSAIMSTSASSENKENEETLKVVEEEKIPQKLPLPALMTPPVPKDTPALSPSGASRFEIVIPFINGSSSAGLGVSLKARVSKKSNGSKVDCGIFIKNVMHGGAAFKEGGLRVDDRIVGVEDIDLEPLDNREAQAALAKKLKEVGMISSNVRLTISRYNECNPGQISRDLSRITVDASSPSPSSRMSSHTAPDSLLPSPATRGTSSSGADSSHSRQSSASSAVPAVPARLTERDSIVSDGTSRNDESELPDSADPFNREGLGRKSLSEKRGMGAAADPQHIKLFQDIKHQRQNSAPTSSTQKRSKSQPRSSSQRNYRSPMKLVDLPTTAAASASTNSQNLDDSDMLNRRSQSMESINRPVESILRGTGQIPTGSSSKVQFMQAASPDQHPFPPGAALLRLKNEESRSRDKSRRKSMGNPFSAMRNFFGFGSKSRDASPEKTPTESVQLRSVERPKSIIDERNNGSSERAPPPLPPHQSQRRGSGGNVFVDYGEPYGLIPQYPHNTTSGYESYADSELYDRYAAHRYHPRGGPIIDEDEYIYRQQSTSGNSPINTSSYVNYGLPASNAYHVGSRIPPQTSSGSISKTSGAMRRVYPAEYDEDVAYHQQIPQQSTRYQQGSGSGRGNADYHHMFNSWFAYTGGGAVGAAPVIKSSYGSSPVRIAAASAIERGESFVVEPVSGSSASATDRRGRSTSSGAVASGSSSTGFQYAAKEKYADARSGKFNGGSTRLFIPRHGGGLSAAAFATNFGGEAYETRGGGAGGSPSQYRRRDQGPPHRFPQY
binding: no binding
